Where two headings read alike, the source gives them in different places.
Tested on: 134 cancer cell lines
Assay: Cell viability assay (ATPlite, 72 hours), IC50 on cancer cell line panel
Settings: Homo sapiens

COc1cc2ncnc(Nc3ccc(F)c(Cl)c3)c2cc1OCCCN1CCOCC1 [gefitinib]
IC50 (SK-N-SH, read-out: IC50 in cell proliferation assay): 6.92 µM | IC50 (SW48, read-out: IC50 in cell proliferation assay): 0.004 µM

— article PMC9516332 (Frontiers in Oncology, 2022)
